Not every detail of the peptide structures is certain; ends, links or a residue may be inferred. Where no end group is shown, it is not given here.
What was measured:
TISI cells (HLA-A24/24) = test: In vitro CTL induction and 51Cr-release cytotoxicity assay against peptide-loaded TISI cells; assay type: cell-based, human
Procedure: Monocyte-derived dendritic cells (DCs) were used as antigen-presenting cells (APCs) to induce CTLs against peptides presented on HLA. DCs were generated in vitro as described elsewhere (Nukaya I, et al., Int J Cancer. 1999; 80(1):92-7; Tsai V, et al., J Immunol. 1997; 158(4):1796-802). […]
Target cells were labeled with 100 μCi of Na2^51CrO4 (Perkin Elmer Life Sciences) for 1 hr at 37° C. in a CO2 incubator. […] After 4 hrs of incubation, 0.1 ml of the supernatant was collected from each well and the radioactivity was determined with a gamma counter. […]

HT29 cells = test: Blocking of CTL activity by antibodies that bind to T-cell surface antigens; assay type: cell-based, human; conditions: CTL clone against HT29 cells

Sequence: KLRQEVKQNL [KLRQEVKQNL]
- CTL inducibility (TISI cells (HLA-A24/24)): particularly high CTL inducibility
- CTL activity with antibodies that recognize HLA Class I or CD8 (HT29 cells): clearly blocked
- CTL activity with antibodies to HLA Class II or CD4 (HT29 cells): marginally affected
- CTL activity with isotype-matched control antibody (HT29 cells): not inhibited at all
